Measured data: PubChem BioAssay AID1259405 (NCATS, 2018)
Assay: 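Silenced genes that increase secreted GFP made by CHO cells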 (primary screen). Cell system: Chinese hamster CHO-K1 ovary cells with stable secreted eGFP expression. Reagent: single siRNA against mouse genes, 0.8 pmol siRNA per well (2 µl of 400 nM stock). Timing: 3 days. Measured: 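Per-well intracellular GFP measured by laser scanning cytometry, plus viability from ATP luminescence, each relative to plate median of non-targeting control wells, in %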. Scale: GFP, % of control: higher = more GFP per well, higher productivity; viability (ATP), % of control: higher = more viable cells (more ATP). Rule for the call: 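Called active when intracellular GFP, relative to negative control, is at or above 120%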.
In all, the deposit lists about 50,000 reagents; this is a part drawn at random. Of all reagents, about 4,000 (8%) were called active. 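Mouse siRNA library applied to hamster cells; one well for each siRNA.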 Entries without a mark were called inactive. Reagents against one gene are numbered here.

| target | siRNA no. | GFP, % of control | viability (ATP), % of control |
| --- | --- | --- | --- |
| Magoh | 1 | 41.8 | 80.4 |
| Magoh | 2 | 68.7 | 83.1 |
| Magoh | 3 | 89.7 | 63.7 |
| Bax | 1 | 82.2 | 64.5 |
| Bax | 2 | 72.1 | 67.6 |
| Bax | 3 | 82.7 | 77.1 |
| Ctdsp1 | 1 | 96.2 | 82.6 |
| Ctdsp1 | 2 | 77.2 | 55.8 |
| Ctdsp1 | 3 | 113 | 60.9 |
| Epha10 | 1 | 39.4 | 45.2 |
| Epha10 | 2 | 57.6 | 60.7 |
| Epha10 | 3 | 42.9 | 50.7 |
| Chchd1 | 1 | 56.8 | 72.3 |
| Chchd1 | 2 | 81.8 | 75.4 |
| Chchd1 | 3 | 72.8 | 93.8 |
| Csl | 1 | 31.1 | 22.4 |
| Csl | 2 | 149 (active) | 56.4 |
| Csl | 3 | 62.5 | 95 |
| Tubgcp3 | 1 | 76.2 | 67.6 |
| Tubgcp3 | 2 | 100 | 128 |
| Sult1c1 | 1 | 185 (active) | 137 |
| Sult1c1 | 2 | 79.2 | 97.7 |
| Sult1c1 | 3 | 63 | 65.6 |
| Cmpk2 | 1 | 40.1 | 49.1 |
| Cmpk2 | 2 | 50.3 | 57.7 |
| Cmpk2 | 3 | 116 | 100 |
| Rasa2 | 1 | 123 (active) | 105 |
| Rasa2 | 2 | 97.2 | 53.6 |
| Rasa2 | 3 | 52.5 | 79 |
| Prr14 | 1 | 37.5 | 67.6 |
| Prr14 | 2 | 93.9 | 129 |
| Prr14 | 3 | 109 | 139 |
| Zbtb10 | 1 | 68.7 | 66 |
| Zbtb10 | 2 | 62.7 | 87.1 |
| Zbtb10 | 3 | 53.6 | 53.2 |
| Tceal1 | 1 | 90.7 | 82.8 |
| Tceal1 | 2 | 68.3 | 66.1 |
| Tceal1 | 3 | 79.1 | 75.2 |
| Fus | 1 | 63.4 | 68.5 |
| Fus | 2 | 62.7 | 57.3 |
| Fus | 3 | 64.4 | 60 |
| Or9g8 | 1 | 76 | 107 |
| Or9g8 | 2 | 71.7 | 90.9 |
| Or9g8 | 3 | 91 | 83.2 |
| Or52m2 | 1 | 64.8 | 70.7 |
| Or52m2 | 2 | 85.5 | 81.8 |
| Or52m2 | 3 | 69.4 | 108 |
| Clcn2 | 1 | 97.1 | 91.9 |
| Clcn2 | 2 | 78.3 | 96.1 |
| Clcn2 | 3 | 35.1 | 54.2 |
| Mup5 | 1 | 42.7 | 21.6 |
| Mup5 | 2 | 75.2 | 56 |
| Mup5 | 3 | 103 | 44.1 |
| Traf3ip3 | 1 | 110 | 92.8 |
| Traf3ip3 | 2 | 82.1 | 86.6 |
| Ercc6l | 1 | 56.3 | 56.7 |
| Ercc6l | 2 | 66.5 | 75 |
| Ercc6l | 3 | 39.8 | 35.7 |
| Cfap251 | 1 | 83.2 | 71.9 |
| Cfap251 | 2 | 89.2 | 99.5 |
| Cfap251 | 3 | 87.4 | 86.9 |

Next part; the last 3 above are carried over.
| target | siRNA no. | GFP, % of control | viability (ATP), % of control |
| --- | --- | --- | --- |
| Cfap251 | 1 | 83.2 | 71.9 |
| Cfap251 | 2 | 89.2 | 99.5 |
| Cfap251 | 3 | 87.4 | 86.9 |
| Styxl1 | 1 | 91.4 | 76.9 |
| Styxl1 | 2 | 79.2 | 80.9 |
| Styxl1 | 3 | 94.1 | 94.6 |
| 9530068E07Rik | 1 | 69.8 | 55.6 |
| 9530068E07Rik | 2 | 69.8 | 94.5 |
| 9530068E07Rik | 3 | 84.2 | 88.2 |
| Mpped1 | 1 | 63.7 | 86.3 |
| Mpped1 | 2 | 82.2 | 76.3 |
| Mpped1 | 3 | 116 | 70.6 |
| Mtss2 | 1 | 60.9 | 70.8 |
| Mtss2 | 2 | 75.2 | 89.5 |
| Mtss2 | 3 | 102 | 105 |
| Gimap9 | 1 | 84.3 | 77.9 |
| Gimap9 | 2 | 92.8 | 69.6 |
| Gimap9 | 3 | 59.2 | 86.8 |
| Jakmip1 | 1 | 91.3 | 99.1 |
| Jakmip1 | 2 | 113 | 108 |
| Jakmip1 | 3 | 61.3 | 74 |
| Nr4a3 | 1 | 34.6 | 44.3 |
| Nr4a3 | 2 | 79.1 | 59.3 |
| Nr4a3 | 3 | 56.6 | 36.3 |
| Galnt4 | 1 | 64 | 116 |
| Galnt4 | 2 | 67.2 | 116 |
| Galnt4 | 3 | 50.9 | 113 |
| Pcdha1 | 1 | 60.6 | 51.6 |
| Pcdha1 | 2 | 43.3 | 48.7 |
| Pcdha1 | 3 | 61.4 | 44.8 |
| Zc3h6 | 1 | 101 | 57.2 |
| Zc3h6 | 2 | 30.8 | 35.1 |
| Zc3h6 | 3 | 79 | 93.6 |
| Or1f12 | 1 | 54.1 | 53.2 |
| Or1f12 | 2 | 42.6 | 40.6 |
| Or1f12 | 3 | 69.4 | 65.4 |
| Dbnl | 1 | 74.2 | 57.1 |
| Dbnl | 2 | 77.4 | 82.4 |
| Dbnl | 3 | 76.3 | 73.1 |
| Tmem64 | 1 | 70.2 | 71.3 |
| Tmem64 | 2 | 56.7 | 51.9 |
| Tmem64 | 3 | 69.9 | 73.1 |
| Cdk10 | 1 | 57.8 | 55.7 |
| Blzf1 | 1 | 106 | 102 |
| Blzf1 | 2 | 81.3 | 87 |
| Blzf1 | 3 | 103 | 131 |
| Mefv | 1 | 87.8 | 111 |
| Mefv | 2 | 115 | 90.3 |
| Macir | 1 | 69.7 | 80.1 |
| Macir | 2 | 87.3 | 80.7 |
| Macir | 3 | 52.6 | 76.6 |
